Reference: paper PMC6689091
No constants are given. Whether binding was seen depends on the method and setting. Binding seen in cells or lysates may run through a third protein. Some binding calls cover weakened binding; strength is not graded here. For some assays here: Sequences can lack the tags named with a protein.

Chains of the proteins cited; added tags and fusions are not shown.
UniProt O96013: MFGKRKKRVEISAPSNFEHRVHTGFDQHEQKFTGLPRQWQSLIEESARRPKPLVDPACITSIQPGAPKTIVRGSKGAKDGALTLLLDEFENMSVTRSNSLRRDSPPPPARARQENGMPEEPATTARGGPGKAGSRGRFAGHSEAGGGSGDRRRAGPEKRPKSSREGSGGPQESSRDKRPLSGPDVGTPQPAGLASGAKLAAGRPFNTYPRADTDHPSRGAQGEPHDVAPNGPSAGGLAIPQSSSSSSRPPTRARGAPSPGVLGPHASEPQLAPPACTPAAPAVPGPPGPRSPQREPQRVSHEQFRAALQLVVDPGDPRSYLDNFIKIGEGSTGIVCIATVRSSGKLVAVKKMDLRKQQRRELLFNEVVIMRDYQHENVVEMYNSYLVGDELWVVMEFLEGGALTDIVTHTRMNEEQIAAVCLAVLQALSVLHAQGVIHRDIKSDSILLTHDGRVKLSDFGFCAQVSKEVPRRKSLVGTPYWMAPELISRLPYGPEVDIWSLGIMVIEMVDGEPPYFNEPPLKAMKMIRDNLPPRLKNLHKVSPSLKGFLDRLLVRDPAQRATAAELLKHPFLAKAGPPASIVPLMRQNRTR

T1: FLAG-tagged human RELB (human) (UniProt Q01201)
T1 sequence: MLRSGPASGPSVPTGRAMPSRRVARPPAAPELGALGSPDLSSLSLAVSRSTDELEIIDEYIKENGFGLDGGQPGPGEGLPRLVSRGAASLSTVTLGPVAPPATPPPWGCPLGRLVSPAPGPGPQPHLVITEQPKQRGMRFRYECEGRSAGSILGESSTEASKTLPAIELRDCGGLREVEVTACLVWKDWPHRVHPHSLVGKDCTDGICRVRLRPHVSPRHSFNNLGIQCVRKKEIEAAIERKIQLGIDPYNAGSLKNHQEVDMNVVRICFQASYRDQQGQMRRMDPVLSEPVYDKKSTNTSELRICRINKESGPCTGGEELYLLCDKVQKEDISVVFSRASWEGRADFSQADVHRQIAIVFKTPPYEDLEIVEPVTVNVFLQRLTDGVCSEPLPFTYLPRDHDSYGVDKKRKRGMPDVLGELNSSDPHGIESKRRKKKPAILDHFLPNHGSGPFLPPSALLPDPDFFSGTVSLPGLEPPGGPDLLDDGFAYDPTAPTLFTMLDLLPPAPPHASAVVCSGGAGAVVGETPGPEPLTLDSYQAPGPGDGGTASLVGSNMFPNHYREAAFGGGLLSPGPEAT


Tests used:
[1] = target: T1, FLAG-tagged human RELB (human); assay: co-IP; FLAG-RELB immunoprecipitated (ANTI-FLAG M2 affinity gel) from whole-cell lysate of transfected cells; immunoblot for endogenous PAK4; cell line not given
endogenous PAK4 = endogenous PAK4 (UniProt O96013); assay: co-IP; endogenous PAK4 immunoprecipitated from whole-cell lysate (monoclonal mouse anti-PAK4, protein G-Sepharose; mouse IgG as control); immunoblot for endogenous RELB; cell line not given

Molecule	binding [1]	binding (endogenous PAK4)
endogenous PAK4 (from UniProt O96013 1-591)	binds	–
endogenous RELB (cells of the endogenous PAK4 immunoprecipitation) (protein, UniProt Q01201 1-579) MLRSGPASGPSVPTGRAMPSRRVARPPAAPELGALGSPDLSSLSLAVSRSTDELEIIDEYIKENGFGLDGGQPGPGEGLPRLVSRGAASLSTVTLGPVAPPATPPPWGCPLGRLVSPAPGPGPQPHLVITEQPKQRGMRFRYECEGRSAGSILGESSTEASKTLPAIELRDCGGLREVEVTACLVWKDWPHRVHPHSLVGKDCTDGICRVRLRPHVSPRHSFNNLGIQCVRKKEIEAAIERKIQLGIDPYNAGSLKNHQEVDMNVVRICFQASYRDQQGQMRRMDPVLSEPVYDKKSTNTSELRICRINKESGPCTGGEELYLLCDKVQKEDISVVFSRASWEGRADFSQADVHRQIAIVFKTPPYEDLEIVEPVTVNVFLQRLTDGVCSEPLPFTYLPRDHDSYGVDKKRKRGMPDVLGELNSSDPHGIESKRRKKKPAILDHFLPNHGSGPFLPPSALLPDPDFFSGTVSLPGLEPPGGPDLLDDGFAYDPTAPTLFTMLDLLPPAPPHASAVVCSGGAGAVVGETPGPEPLTLDSYQAPGPGDGGTASLVGSNMFPNHYREAAFGGGLLSPGPEAT	–	binds
